Data on 58 compounds can be found in PubChem BioAssay AID2685 (National Center for Advancing Translational Sciences (NCATS), 2010).

This assay can be described thus: qHTS Assay for Lipid Storage Modulators in Drosophila S3 Cells.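 On cell number change: cells counted by Cell Tracker Red CMTPX staining in the red channel.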 The following applies: BODIPY lipid droplet fluorescence, 18-24 h; for cell number change: measured here: cell count max response, cells fed with added oleic acid. In a few lines:
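Drosophila S3 cells got compounds at several concentrations plus oleic acid (400 uM solution). Laser-scanning cytometry with 488 nm excitation read lipid droplets at 500-530 nm and cells at 575-640 nm. Percent activity was relative to 20 uM Triacsin C.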

The mark [1] stands for this setting: measured here: lipid fluorescence (Fed channel) AC50, cells fed with added oleic acid.
[2] abbreviates: measured here: cell number channel AC50, cells fed with added oleic acid.

The other results are listed elsewhere or left out. Shown are side measurements of this screen, not its main read-out; they come without a call. The list favours compounds with an active or inconclusive main result. Words in brackets tell the shape of the fitted curve; partial curves, single points and poor fits give uncertain potencies.

For the compound `CC(=O)Nc1c(C(=O)Nc2ccc3c(c2)OCO3)oc2ccccc12`, the cell number change is -10.7%. The AC50 – broadly, the concentration at which the activity in the assay is half-maximal – under setting [1] is 1.46 µM [falling, partial curve].

On to `CCCCNC(=O)CC1N=C2c3ccccc3N=C(SCC(=O)Nc3ccccc3C)N2C1=O` (stereo not drawn), for which the cell number change is 114%. Also, under setting [2], the concentration at half-maximal activity (AC50) was 25.9 µM [rising, partial curve]. In addition, the concentration at half-maximal activity (AC50) under setting [1] is 18.4 µM [rising, partial curve].

Consider `C=CCc1c(C)nc(SCC(N)=O)[nH]c1=O`, for which the cell number change was -42.5%. The AC50 under setting [1] was 2.59 µM [rising, single point].

`CCOc1ccc(CNC(=S)Nc2ccccc2)cc1Cl`: the cell number change is -48.1%. Under setting [2], the AC50 is 25.9 µM [falling, single point]. The AC50 under setting [1] is 29.1 µM [falling, single point].

Consider `Cc1cc(C(=O)CN2C(=O)NC(CC(C)C)C2=O)c(C)n1-c1ccccc1F` (stereo not drawn), for which the cell number change was found to be 18%. Under setting [1], the AC50 is 0.00517 µM [falling, full curve, poor fit].

As for `CC(=O)CSc1ccc(-c2nc3ccccc3[nH]2)cn1`, the cell number change was -41.6%. Moreover, under setting [2], the AC50 was 23.1 µM [falling, single point]. Under setting [1], the AC50 is 20.6 µM [falling, single point].

In the case of `O=C(Nc1ccc2c(c1)OCO2)c1ccc(S(=O)(=O)N2CCCC2)cc1`, the cell number change was 15.8%. Also, the AC50 under setting [1] is 0.206 µM [rising, full curve, poor fit].

As for `CN(C(=O)CN1C(=O)S/C(=C\c2ccc(F)cc2)C1=O)C1CCS(=O)(=O)C1` (stereo not drawn), the cell number change worked out at 9.17%.

In the case of `Cc1ccc(C(=O)N/N=C2\CCCc3ccccc32)c(C)c1`, the cell number change is -4.75%. For the same compound, under setting [1], the concentration at half-maximal activity (AC50) is 1.03 µM [rising, partial curve, poor fit].

Turning to `O=c1oc2ccccc2cc1-c1nc(-c2cccs2)cs1`, the cell number change was -4.3%. The AC50 under setting [2] was 6.51 µM [rising, single point].

Take `Cc1ccc2c(c1)OC(=O)CC2c1ccccc1` (stereo not drawn): the cell number change stood at 3.46%. Under setting [1], the concentration at half-maximal activity (AC50) is 0.58 µM [falling, partial curve, poor fit].

Take `CCOc1ccc(Br)cc1CSC(=N)N`: the cell number change is -19.1%. Moreover, the AC50 under setting [1] is 18.4 µM [falling, partial curve].

For the compound `COc1cc(CNCCN2CCOCC2)ccc1OCc1c(Cl)cccc1Cl`, the cell number change is -0.617%. Besides, the AC50 under setting [1] was 29.1 µM [falling, single point].

Regarding `CCOC(=O)CNC(=O)/C=C/c1ccc2c(c1)OCO2`, the cell number change came to 25.8%. The AC50 under setting [1] was 29.1 µM [rising, single point].

In the case of `COc1ccc(-c2csc3ncn(Cc4ccccc4)c(=O)c23)cc1`, the cell number change was -30.7%. For the same compound, the AC50 under setting [2] is 14.6 µM [falling, single point].

As to `O=C(NC1CCCc2c1cnn2-c1cc(F)cc(F)c1)c1ccc[n+]([O-])c1` (stereo not drawn), the cell number change was 16.3%. Further, the AC50 under setting [1] was 2.59 µM [rising, full curve].

Take `Cc1ccc(-n2c(SCC(=O)N(C)C)nnc2-c2ccco2)cc1`: the cell number change is -26.4%. In addition, under setting [1], the AC50 was 3.26 µM [rising, partial curve, poor fit].

In the case of `COc1ccc(CNC(=O)C2CCCN2S(=O)(=O)c2ccc(C)cc2)cc1` (stereo not drawn), the cell number change is 103%. In addition, under setting [2], the half-maximal activity concentration (AC50) was 8.2 µM [rising, partial curve]. In addition, the AC50 under setting [1] is 6.51 µM [rising, single point].

Take `c1ccc(-c2cnn3nnnc3n2)cc1`: the cell number change is -8.15%.

For `CCOC(=O)N1CCN(C(=O)c2cccn3c(=O)c4cc(Cl)ccc4nc23)CC1`, the cell number change worked out at 1.72%.

`NS(=O)(=O)c1cccc(NC(=O)CC(NC(=O)c2ccccc2Cl)c2ccccc2)c1` (stereo not drawn): the cell number change was -22.5%. Moreover, the AC50 under setting [1] is 4.61 µM [falling, full curve].

As to `C/C(=N\NC(=S)NC(C)C)c1ccc(-n2ccnc2)cc1`, the AC50 was 0.184 µM [rising, full curve, poor fit] under setting [2] and 0.13 µM [rising, full curve, poor fit] under setting [1].

`COc1ccc(NS(=O)(=O)c2ccc3[nH]c(=O)[nH]c3c2)cc1`: the cell number change was determined as 2.59%. Under setting [1], the AC50 was 3.66 µM [rising, single point].

On to `Cc1nn(Cc2cccc(F)c2)c(C)c1NC(=O)c1c([N+](=O)[O-])c(C)nn1C`, for which the cell number change is 55.5%. For the same compound, the AC50 under setting [2] is 0.0461 µM [rising, full curve]. In addition, the AC50 under setting [1] was 0.0651 µM [rising, full curve, poor fit].

With `N#C/C(=C\c1ccc(-c2ccc([N+](=O)[O-])cc2)o1)C(=O)Nc1nc(-c2cccs2)cs1`, the cell number change was found to be 6.43%.

As for `Cc1ccc(-c2nn(CC(=O)N(C)C)c(=O)c3ccccc23)cc1S(=O)(=O)N(C)C`, the cell number change was determined as 89.6%. Under setting [2], the half-maximal activity concentration (AC50) is 29.1 µM [rising, single point].

With `O=C(CCC(=O)NNC(=O)COc1ccc(Br)cc1Br)NCc1ccccc1`, the cell number change is -29.4%. Besides, the AC50 under setting [1] was 18.4 µM [falling, single point].

Take `CC(C)c1nc(NCCO)c(C#N)c2c1CCCC2`: the cell number change is -29.4%. The AC50 under setting [1] is 18.4 µM [falling, partial curve].

Turning to `CCOC(=O)c1c(C)nc2c(c1-c1cc(OC)ccc1OC)C(=O)c1ccccc1-2`, the AC50 is 2.91 µM [rising, partial curve] under setting [2] and 2.59 µM [rising, partial curve] under setting [1].

Take `Cc1ccc(S(=O)(=O)CCC(=O)OCC(=O)NC(C)c2ccc(F)cc2)cc1` (stereo not drawn): the cell number change was -3.48%. Besides, the AC50 under setting [1] was 0.651 µM [falling, full curve, poor fit].

`O=C(COC(=O)CCc1nc2ccccc2s1)Nc1ccc(S(=O)(=O)N2CCOCC2)cc1`: the cell number change was determined as 2.32%. Besides, under setting [1], the AC50 is 6.51 µM [rising, single point].

As for `O=C(OC1CCCCC1)c1cc2ccccc2oc1=O`, the cell number change came to 1.42%. In addition, the AC50 under setting [1] was 9.2 µM [falling, partial curve].

As for `COc1ccc(/C=C(\NC(=O)c2cccs2)C(=O)Nc2ccc(C)cc2)cc1OC`, the cell number change is -82%. In addition, the AC50 under setting [2] is 1.3 µM [falling, full curve]. Besides, the AC50 under setting [1] is 1.84 µM [falling, full curve].

As to `Cc1nn(Cc2ccccc2)c2c1C(c1cccnc1)C(C#N)=C(N)O2` (stereo not drawn), the cell number change turned out to be 26.4%. Moreover, the AC50 under setting [1] is 0.82 µM [rising, full curve, poor fit].

As for `O=[N+]([O-])c1nn(-c2ccc(Cl)cc2)n(O)c1=NCc1ccncc1`, the cell number change was determined as 42.4%. Under setting [2], the AC50 was 10.3 µM [rising, partial curve]. Under setting [1], the AC50 was 14.6 µM [rising, partial curve].

As to `CO/N=C/NC(=O)c1c(OC)ccnc1Oc1ccccc1`, the cell number change is -8.65%. Moreover, the AC50 under setting [1] is 16.4 µM [rising, single point].

`N#Cc1ccccc1Sc1ccccc1C(=O)OCC(=O)N1CCN(C(=O)c2ccco2)CC1`: the cell number change came out at 9.47%.

As to `Cc1cc2nn(-c3cccc4ccccc34)nc2cc1NC(=O)c1cccs1`, the cell number change is -17.6%. For the same compound, the concentration at half-maximal activity (AC50) under setting [1] was 13 µM [falling, single point].

For `O=C(Nc1ccc2c(c1)OCCO2)C1CCN(S(=O)(=O)Cc2ccccc2)CC1`, the cell number change was -2.36%. Under setting [1], the AC50 was 14.6 µM [rising, single point].

As for `O=C1CCCN1CN(C(=O)c1ccccc1)c1ccc(F)cc1`, the cell number change was determined as 15.8%. Further, the concentration at half-maximal activity (AC50) under setting [1] is 4.11 µM [falling, single point].

Consider `CCCSc1ccc([C@@H]2[C@H]3C(=O)N(CC)C(=O)[C@H]3[C@]3(C(=O)OC)CCCN23)cc1`, for which the cell number change worked out at 17.6%. Besides, under setting [1], the AC50 was 29.1 µM [rising, single point].

Take `Cc1ccc(NC(=O)CSc2nnc(-c3ccccn3)n2N)cc1F`: the cell number change is 15%. Further, the AC50 under setting [1] was 0.164 µM [rising, full curve].

For `COC(=O)N[C@@H]1C[C@H]2[C@@H]3CC[C@H]4C[C@@H](OC)CC[C@]4(C)[C@H]3CC[C@@]12C`, the cell number change was -31.3%. Further, under setting [2], the AC50 is 25.9 µM [falling, single point].

On to `Cn1c(=O)c2c(nc(NCCNC(=O)c3ccco3)n2Cc2ccccc2)n(C)c1=O`, for which the cell number change came out at 10%. Also, under setting [1], the AC50 is 1.16 µM [rising, single point].

On to `O=C(Nc1ccc2c(c1)OCCO2)C1CCN(C(=O)c2ccc(Br)cc2)CC1`, for which the cell number change is -25.2%. In addition, the AC50 under setting [2] was 2.31 µM [falling, partial curve]. The AC50 under setting [1] is 6.51 µM [falling, partial curve, poor fit].

On to `CCc1noc(C)c1C(=O)N(CC)c1nc2c(C)cccc2s1`, for which the cell number change was -0.679%. Further, the AC50 under setting [1] was 18.4 µM [falling, partial curve, poor fit].

As for `CCOc1ccccc1CN1CCN(Cc2cn(C)nc2-c2ccccc2)CC1CCO` (stereo not drawn), the cell number change came out at 6.09%. For the same compound, under setting [1], the concentration at half-maximal activity (AC50) was 6.51 µM [falling, single point].

In the case of `COc1ccc(OCc2cc(C(=O)NCC3(C)COC3)no2)c(Cl)c1`, under setting [1], the AC50 was 29.1 µM [rising, single point].

`O=C(NC1CCCC1)C(c1ccncc1)N(CCCN1CCOCC1)C(=O)c1ccc(-c2ccccc2)[nH]1` (stereo not drawn): the cell number change came to 42.3%.

Turning to `CCC(=O)Nc1ccc(-c2csc(NNC(C)=O)n2)cc1`, the cell number change amounted to 7.65%. Further, under setting [1], the concentration at half-maximal activity (AC50) is 5.8 µM [falling, partial curve].

As to `COc1cc(-c2nnc(SCC(=O)c3ccccc3)o2)cc(OC)c1OC`, the cell number change is -2.01%. Further, the half-maximal activity concentration (AC50) under setting [1] is 7.31 µM [rising, partial curve].

As to `O=C(Nc1nnc(-c2cccnc2)o1)c1cccc(Cl)c1`, the cell number change came to 27.4%. Moreover, the AC50 under setting [2] is 3.66 µM [rising, single point].

For the compound `CCN1C(=O)CC(NNC(=O)c2ccccc2)C1=O` (stereo not drawn), the cell number change is 26.9%. Further, the AC50 under setting [1] was 13 µM [rising, partial curve, poor fit].

Consider `CC(C)CNC(=O)c1cc(=O)[nH]c2ccc(S(=O)(=O)Nc3ccc(F)cc3)cc12`, for which the cell number change was 0.42%.

Regarding `C=CCn1c(=O)n(CCOC)c(=O)c2sc3ccccc3c21`, the cell number change came to 63.5%. Moreover, the AC50 under setting [2] was 29.1 µM [rising, single point].

As for `CC(C)c1ccccc1-n1c(SCC(=O)c2ccc3c(c2)NC(=O)CO3)nc2ccccc2c1=O`, the cell number change is -5.41%. In addition, the AC50 under setting [2] is 0.82 µM [rising, single point]. Moreover, the AC50 under setting [1] was 0.58 µM [rising, partial curve, poor fit].

`COc1ccc(NC(=O)CCC(=O)Nc2nnc(C(F)(F)F)s2)c(OC)c1`: the cell number change was -44.4%. In addition, under setting [2], the AC50 is 16.4 µM [falling, partial curve, poor fit].

Turning to `CCOC(=O)c1cc(C)sc1NC(=O)c1ccc(Cl)s1`, the cell number change was found to be 0.232%. Moreover, under setting [2], the half-maximal activity concentration (AC50) was 0.651 µM [rising, partial curve]. For the same compound, the AC50 under setting [1] was 0.517 µM [rising, single point].
